Laboratory results published in US20210130428A1 (Novartis, published 2021).
No constants are given. Whether binding was seen depends on the method and setting. Some entries that bind do so weakly or less than the wild type.

Protein sequences, listed by entry. Tags and fused reporters are not part of them. Residues count along the entry.
UniProt P22004, residues 382-513: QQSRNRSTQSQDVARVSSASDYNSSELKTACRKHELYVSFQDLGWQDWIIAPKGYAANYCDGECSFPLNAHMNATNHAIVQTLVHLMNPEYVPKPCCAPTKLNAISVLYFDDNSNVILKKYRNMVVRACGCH

How the values were obtained:
[1] = biological target: human BMP6 (Bone Morphogenetic Protein 6) (human) (UniProt P22004); experiment: HDxMS
[2] = biological target: human BMP6 (Bone Morphogenetic Protein 6) (human) (UniProt P22004); experiment: ELISA binding assay
[3] = biological target: human BMP6 (Bone Morphogenetic Protein 6) (human) (UniProt P22004); experiment: ELISA binding assay, fluorescence signal intensity (anti-Fab-AP detection); one bar per antigen, antibody concentration not given

binding [1]: binds | binding [2]: binds | binding [3]: binds
B1: Antibody 7 (antibody, human IgG1, lambda, V domains shown)
VH: QVQLVESGGGLVKPGGSLRLSCAASGFTFSSYVVHWVRQAPGKGLEWVGRIRLETHGYAAEYAASVKGRFTISRDDSKNTLYLQMNSLKTEDTAVYYCARVERSKSGFDNWGQGTLVTVSS
VL: QSVLTQPPSVSGAPGQRVTISCTGSSSNIGAGYSVHWYQQLPGTAPKLLIYGQSERPSGVPDRFSGSKSGTSASLAITGLQAEDEADYYCQSWDSSQTLVVFGGGTKLTVLG
notes: also called Ab 7; Ab7
